Values of other authors in patent US20080242646A1, “Split dose corticosteroid therapy” (priority 2007, published 2008).
At least one compound was matched to its structure with a doubt left.

Settings: cited from earlier work; for Equivalent dose, Equal to 1 mg prednisolone / Equivalent dose, Equal to 5 mg prednisolone: BNF guidelines; for Broadly similar dose from clinical dosing equivalence: nasal administration, BNF 37 Mar. 1999

With `C[C@H]1C[C@H]2[C@@H]3CCC4=CC(=O)C=C[C@]4(C)[C@@]3(F)[C@@H](O)C[C@]2(C)[C@@]1(O)C(=O)CO` [betamethasone] as the compound, how does the “Equivalent dose, Equal to 1 mg prednisolone” value read?
Its value is 150 µg.

What about the “Equivalent dose, Equal to 5 mg prednisolone” value of the same compound?
Its value is 750 µg.

For `CCCC1O[C@@H]2C[C@H]3[C@@H]4CCC5=CC(=O)C=C[C@]5(C)[C@H]4[C@@H](O)C[C@]3(C)[C@]2(C(=O)CO)O1` (stereo partly drawn) [budesonide], which “Broadly similar dose from clinical dosing equivalence” value is on record?
The value was 200 µg.

What does the source list for `C[C@@H]1C[C@H]2[C@@H]3CCC4=CC(=O)C=C[C@]4(C)[C@@]3(F)[C@@H](O)C[C@]2(C)[C@@]1(O)C(=O)CO` [dexamethasone]?
Equivalent dose, Equal to 1 mg prednisolone: 150 µg; Equivalent dose, Equal to 5 mg prednisolone: 750 µg

With `C[C@@H]1C[C@H]2[C@@H]3C[C@H](F)C4=CC(=O)C=C[C@]4(C)[C@@]3(F)[C@@H](O)C[C@]2(C)[C@@]1(O)C(=O)SCF` [fluticasone] as the compound, how does the “Broadly similar dose from clinical dosing equivalence” value read?
The value was 100 µg.
